# Test results from paper PMC6604950.
# Chains of the proteins cited; added tags and fusions are not shown.
# UniProt P72772: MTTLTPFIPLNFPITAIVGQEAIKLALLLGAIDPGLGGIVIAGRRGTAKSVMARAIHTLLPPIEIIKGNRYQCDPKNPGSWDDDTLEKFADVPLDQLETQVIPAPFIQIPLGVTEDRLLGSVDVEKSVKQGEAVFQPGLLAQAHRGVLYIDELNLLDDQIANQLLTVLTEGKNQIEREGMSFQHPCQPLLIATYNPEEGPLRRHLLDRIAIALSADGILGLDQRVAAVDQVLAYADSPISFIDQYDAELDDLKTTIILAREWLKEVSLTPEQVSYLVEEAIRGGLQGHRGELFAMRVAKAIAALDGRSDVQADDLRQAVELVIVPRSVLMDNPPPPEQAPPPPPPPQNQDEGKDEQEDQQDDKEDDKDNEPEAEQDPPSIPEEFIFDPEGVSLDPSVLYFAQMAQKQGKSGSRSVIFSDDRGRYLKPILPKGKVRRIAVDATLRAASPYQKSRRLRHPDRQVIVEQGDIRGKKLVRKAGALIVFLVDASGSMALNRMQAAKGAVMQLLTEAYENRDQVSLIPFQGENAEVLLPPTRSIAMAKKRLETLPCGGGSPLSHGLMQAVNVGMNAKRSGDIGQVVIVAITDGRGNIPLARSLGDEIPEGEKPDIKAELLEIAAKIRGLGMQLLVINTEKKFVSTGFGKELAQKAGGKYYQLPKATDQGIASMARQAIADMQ
# No constants are given. Whether binding was seen depends on the method and setting. In cells and extracts the contact can be indirect. Some binding calls cover weakened binding; strength is not graded here. Sequences can lack the tags named with a protein.
# Molecular target: T1, StrepII-ChlH (N-terminally StrepII-tagged Synechocystis ChlH) (Synechocystis sp. PCC 6803) (UniProt P73020)
# T1 sequence: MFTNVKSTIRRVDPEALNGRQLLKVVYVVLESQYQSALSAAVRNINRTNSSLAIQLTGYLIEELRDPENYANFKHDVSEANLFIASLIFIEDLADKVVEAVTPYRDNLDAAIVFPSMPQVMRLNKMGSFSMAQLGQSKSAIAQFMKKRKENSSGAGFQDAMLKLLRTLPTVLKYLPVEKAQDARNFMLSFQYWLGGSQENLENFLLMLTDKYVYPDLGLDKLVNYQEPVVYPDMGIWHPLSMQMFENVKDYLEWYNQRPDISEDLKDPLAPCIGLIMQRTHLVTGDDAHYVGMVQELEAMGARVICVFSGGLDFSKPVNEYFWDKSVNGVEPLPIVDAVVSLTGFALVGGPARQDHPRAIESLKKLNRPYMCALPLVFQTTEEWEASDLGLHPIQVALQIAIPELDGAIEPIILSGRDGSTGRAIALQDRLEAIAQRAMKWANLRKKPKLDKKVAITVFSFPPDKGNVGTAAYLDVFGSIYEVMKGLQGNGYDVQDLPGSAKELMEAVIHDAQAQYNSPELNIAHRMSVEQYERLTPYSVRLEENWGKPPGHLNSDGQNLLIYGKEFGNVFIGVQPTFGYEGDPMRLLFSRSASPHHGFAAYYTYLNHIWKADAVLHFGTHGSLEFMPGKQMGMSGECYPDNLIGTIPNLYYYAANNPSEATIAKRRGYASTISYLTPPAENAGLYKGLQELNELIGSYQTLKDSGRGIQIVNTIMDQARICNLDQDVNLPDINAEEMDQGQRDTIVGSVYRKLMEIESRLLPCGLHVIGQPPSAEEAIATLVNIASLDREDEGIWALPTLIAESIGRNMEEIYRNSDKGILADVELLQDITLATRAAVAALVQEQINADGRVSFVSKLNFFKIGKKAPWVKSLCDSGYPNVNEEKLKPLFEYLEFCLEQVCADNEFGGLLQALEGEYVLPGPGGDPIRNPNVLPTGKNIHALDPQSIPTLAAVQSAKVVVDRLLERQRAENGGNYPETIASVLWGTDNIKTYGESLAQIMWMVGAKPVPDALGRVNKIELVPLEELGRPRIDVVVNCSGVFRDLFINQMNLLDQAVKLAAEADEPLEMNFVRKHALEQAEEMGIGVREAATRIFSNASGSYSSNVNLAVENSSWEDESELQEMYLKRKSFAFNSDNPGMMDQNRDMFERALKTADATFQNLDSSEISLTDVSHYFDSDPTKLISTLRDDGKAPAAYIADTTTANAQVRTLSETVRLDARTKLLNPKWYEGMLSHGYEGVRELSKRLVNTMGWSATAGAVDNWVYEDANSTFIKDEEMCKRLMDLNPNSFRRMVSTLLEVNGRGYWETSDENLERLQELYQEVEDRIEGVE
# Assay: pull-down; StrepII-ChlH and untagged ChlD co-produced in E. coli; supernatant on a StrepTrap HP column; 100 mM Tris HCl, 1 mM EDTA, pH 8; eluted with 2.5 mM desthiobiotin; SDS-PAGE and Western blot
substance,measurement,value
"untagged ChlD (Synechocystis, co-produced with StrepII-ChlH) (from UniProt P72772 1-676)",binding,binds
